Results published in PMC7075897.
No constants are given. Whether binding was seen depends on the method and setting. In cells and extracts the contact can be indirect. Some binding calls cover weakened binding; strength is not graded here.

The chains behind the UniProt entries cited, without tags or fusion partners.
UniProt Q9V460: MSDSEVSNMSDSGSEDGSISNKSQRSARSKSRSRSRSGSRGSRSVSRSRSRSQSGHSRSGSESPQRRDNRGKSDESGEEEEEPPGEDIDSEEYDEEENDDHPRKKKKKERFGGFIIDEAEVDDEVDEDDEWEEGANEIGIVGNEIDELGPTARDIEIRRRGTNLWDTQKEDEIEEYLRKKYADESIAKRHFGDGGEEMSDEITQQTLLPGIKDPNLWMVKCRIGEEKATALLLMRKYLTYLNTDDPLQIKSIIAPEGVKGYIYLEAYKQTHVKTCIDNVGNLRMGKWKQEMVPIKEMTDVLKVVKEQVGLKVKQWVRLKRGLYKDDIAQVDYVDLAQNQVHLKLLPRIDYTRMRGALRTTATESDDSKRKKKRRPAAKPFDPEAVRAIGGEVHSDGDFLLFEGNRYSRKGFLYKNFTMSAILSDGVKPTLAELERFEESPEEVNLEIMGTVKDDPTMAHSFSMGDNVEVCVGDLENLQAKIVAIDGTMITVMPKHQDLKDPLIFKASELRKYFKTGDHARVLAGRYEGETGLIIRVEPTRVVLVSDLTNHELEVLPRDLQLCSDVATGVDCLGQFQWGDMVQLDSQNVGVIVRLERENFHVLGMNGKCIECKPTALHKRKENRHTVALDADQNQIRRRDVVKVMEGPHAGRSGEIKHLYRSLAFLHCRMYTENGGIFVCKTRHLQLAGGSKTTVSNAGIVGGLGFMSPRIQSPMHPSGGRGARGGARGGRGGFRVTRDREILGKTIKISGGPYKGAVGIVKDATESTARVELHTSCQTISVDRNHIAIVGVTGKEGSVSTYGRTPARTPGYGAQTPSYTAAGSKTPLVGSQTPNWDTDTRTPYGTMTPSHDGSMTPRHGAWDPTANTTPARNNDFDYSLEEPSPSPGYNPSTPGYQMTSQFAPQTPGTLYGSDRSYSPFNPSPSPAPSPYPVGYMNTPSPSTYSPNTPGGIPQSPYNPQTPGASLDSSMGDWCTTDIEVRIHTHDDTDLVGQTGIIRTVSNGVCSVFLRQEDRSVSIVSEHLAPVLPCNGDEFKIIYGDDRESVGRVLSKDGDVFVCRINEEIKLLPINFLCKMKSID
UniProt O97159: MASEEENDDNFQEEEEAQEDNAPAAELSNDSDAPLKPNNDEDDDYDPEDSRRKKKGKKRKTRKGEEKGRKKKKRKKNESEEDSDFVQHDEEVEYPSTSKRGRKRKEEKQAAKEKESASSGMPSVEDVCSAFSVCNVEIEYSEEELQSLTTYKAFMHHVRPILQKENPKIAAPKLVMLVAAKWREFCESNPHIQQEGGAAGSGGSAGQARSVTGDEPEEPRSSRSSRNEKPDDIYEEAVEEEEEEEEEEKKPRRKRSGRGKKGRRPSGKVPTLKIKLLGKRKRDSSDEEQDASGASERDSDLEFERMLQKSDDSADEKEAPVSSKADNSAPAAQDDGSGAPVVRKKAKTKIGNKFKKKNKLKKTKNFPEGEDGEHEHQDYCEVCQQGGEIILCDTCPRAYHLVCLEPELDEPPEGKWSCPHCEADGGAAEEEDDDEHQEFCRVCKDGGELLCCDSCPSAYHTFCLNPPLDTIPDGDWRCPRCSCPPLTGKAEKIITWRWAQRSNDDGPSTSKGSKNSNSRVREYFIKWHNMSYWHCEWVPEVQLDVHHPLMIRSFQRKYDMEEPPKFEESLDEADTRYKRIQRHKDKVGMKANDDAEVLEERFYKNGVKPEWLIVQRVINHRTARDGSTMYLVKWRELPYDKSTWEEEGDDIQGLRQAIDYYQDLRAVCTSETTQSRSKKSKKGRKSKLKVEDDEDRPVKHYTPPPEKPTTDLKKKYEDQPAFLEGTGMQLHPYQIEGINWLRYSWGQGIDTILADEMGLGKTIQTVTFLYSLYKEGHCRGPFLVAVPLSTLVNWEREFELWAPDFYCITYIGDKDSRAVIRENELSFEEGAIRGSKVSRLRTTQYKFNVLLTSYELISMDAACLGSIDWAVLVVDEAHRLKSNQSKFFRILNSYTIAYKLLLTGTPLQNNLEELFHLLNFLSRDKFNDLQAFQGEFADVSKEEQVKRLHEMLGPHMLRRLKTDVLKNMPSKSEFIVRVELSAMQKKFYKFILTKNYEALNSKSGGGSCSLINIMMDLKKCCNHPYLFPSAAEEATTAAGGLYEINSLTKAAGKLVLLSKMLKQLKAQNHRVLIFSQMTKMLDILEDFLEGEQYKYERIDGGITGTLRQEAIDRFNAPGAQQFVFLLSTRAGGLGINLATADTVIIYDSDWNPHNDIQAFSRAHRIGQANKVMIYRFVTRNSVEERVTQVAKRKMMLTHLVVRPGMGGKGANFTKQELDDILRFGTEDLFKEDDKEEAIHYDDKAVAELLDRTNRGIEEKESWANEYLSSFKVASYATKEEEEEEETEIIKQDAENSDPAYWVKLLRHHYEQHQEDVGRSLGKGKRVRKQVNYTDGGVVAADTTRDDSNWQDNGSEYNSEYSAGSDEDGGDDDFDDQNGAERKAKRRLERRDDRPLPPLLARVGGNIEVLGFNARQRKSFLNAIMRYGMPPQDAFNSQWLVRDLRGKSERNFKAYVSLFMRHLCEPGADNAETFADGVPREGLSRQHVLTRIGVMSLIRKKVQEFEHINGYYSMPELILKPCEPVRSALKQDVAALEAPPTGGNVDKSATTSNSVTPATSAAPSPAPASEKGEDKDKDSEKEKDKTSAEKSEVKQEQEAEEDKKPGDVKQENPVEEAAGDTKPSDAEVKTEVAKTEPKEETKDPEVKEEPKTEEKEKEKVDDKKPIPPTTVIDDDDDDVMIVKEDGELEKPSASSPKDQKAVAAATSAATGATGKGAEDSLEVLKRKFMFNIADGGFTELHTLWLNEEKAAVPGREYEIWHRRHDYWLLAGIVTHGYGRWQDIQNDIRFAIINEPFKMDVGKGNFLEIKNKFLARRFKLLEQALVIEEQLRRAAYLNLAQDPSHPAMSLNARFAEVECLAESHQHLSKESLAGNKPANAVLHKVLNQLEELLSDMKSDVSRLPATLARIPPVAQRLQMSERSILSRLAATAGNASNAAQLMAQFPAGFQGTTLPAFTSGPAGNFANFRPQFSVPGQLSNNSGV
UniProt A0A0B4JDA0: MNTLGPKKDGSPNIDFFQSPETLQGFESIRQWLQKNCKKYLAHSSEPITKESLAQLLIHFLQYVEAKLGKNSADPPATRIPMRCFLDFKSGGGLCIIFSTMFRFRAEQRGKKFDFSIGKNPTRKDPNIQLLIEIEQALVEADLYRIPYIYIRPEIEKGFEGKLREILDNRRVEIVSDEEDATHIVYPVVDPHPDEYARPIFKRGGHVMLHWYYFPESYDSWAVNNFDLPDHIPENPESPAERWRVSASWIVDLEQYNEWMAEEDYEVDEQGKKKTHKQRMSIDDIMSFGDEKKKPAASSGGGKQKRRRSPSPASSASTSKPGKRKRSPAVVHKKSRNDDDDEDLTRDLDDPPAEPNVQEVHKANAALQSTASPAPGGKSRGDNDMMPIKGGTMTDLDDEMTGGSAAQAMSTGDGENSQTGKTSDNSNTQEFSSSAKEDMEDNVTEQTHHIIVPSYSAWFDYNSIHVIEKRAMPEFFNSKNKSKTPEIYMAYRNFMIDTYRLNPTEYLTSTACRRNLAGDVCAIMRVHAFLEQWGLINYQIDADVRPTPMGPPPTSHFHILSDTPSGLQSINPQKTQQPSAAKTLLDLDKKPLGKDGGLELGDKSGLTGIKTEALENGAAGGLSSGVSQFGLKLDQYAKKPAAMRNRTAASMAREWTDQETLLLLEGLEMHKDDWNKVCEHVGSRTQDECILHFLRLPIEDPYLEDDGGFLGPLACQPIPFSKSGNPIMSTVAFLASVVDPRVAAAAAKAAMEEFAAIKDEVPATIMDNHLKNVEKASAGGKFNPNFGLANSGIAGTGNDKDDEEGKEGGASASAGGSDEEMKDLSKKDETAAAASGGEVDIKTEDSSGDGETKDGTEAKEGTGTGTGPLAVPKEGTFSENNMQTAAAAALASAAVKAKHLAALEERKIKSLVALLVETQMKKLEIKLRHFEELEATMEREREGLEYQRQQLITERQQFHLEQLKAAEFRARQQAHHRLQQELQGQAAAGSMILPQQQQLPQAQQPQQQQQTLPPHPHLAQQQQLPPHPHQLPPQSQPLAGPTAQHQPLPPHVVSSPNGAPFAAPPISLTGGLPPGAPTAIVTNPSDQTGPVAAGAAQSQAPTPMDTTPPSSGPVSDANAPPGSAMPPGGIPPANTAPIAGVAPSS

Tests used:
[1] = target: T1, EcR (Drosophila melanogaster (endogenous in prepupae and S2 cells)) (UniProt P34021); test: co-IP; nuclear protein extract of Drosophila prepupa (0-12 h after puparium formation); IP with antibodies against the partners or against EcR, serum of non-immunized rabbits as control; western blot
T1 sequence: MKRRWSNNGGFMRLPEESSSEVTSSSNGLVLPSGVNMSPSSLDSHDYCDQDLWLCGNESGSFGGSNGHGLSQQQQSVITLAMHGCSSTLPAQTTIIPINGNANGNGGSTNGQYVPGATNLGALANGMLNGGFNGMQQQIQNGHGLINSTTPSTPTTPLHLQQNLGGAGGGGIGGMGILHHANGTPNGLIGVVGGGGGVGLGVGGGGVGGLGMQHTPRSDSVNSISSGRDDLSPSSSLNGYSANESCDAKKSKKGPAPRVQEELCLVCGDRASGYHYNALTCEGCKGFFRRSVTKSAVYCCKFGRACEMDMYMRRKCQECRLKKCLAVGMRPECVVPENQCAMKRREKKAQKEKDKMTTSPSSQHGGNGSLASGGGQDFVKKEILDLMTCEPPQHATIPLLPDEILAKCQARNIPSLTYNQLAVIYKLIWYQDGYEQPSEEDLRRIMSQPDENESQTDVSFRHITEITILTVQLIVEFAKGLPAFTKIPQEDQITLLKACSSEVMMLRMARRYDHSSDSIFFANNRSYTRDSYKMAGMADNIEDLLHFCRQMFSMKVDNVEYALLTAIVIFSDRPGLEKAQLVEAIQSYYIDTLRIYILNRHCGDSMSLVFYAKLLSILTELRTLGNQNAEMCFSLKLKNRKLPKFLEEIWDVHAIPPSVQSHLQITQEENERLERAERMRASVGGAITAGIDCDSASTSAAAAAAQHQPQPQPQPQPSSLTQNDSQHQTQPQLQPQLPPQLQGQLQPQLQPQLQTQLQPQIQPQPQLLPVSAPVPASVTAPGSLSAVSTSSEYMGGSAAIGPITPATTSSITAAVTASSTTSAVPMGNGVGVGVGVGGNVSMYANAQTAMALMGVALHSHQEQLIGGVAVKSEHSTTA

[2] = target: T2, CP190 (Drosophila melanogaster (endogenous in S2 cells and prepupae)) (UniProt Q24478); test: as above
T2 sequence: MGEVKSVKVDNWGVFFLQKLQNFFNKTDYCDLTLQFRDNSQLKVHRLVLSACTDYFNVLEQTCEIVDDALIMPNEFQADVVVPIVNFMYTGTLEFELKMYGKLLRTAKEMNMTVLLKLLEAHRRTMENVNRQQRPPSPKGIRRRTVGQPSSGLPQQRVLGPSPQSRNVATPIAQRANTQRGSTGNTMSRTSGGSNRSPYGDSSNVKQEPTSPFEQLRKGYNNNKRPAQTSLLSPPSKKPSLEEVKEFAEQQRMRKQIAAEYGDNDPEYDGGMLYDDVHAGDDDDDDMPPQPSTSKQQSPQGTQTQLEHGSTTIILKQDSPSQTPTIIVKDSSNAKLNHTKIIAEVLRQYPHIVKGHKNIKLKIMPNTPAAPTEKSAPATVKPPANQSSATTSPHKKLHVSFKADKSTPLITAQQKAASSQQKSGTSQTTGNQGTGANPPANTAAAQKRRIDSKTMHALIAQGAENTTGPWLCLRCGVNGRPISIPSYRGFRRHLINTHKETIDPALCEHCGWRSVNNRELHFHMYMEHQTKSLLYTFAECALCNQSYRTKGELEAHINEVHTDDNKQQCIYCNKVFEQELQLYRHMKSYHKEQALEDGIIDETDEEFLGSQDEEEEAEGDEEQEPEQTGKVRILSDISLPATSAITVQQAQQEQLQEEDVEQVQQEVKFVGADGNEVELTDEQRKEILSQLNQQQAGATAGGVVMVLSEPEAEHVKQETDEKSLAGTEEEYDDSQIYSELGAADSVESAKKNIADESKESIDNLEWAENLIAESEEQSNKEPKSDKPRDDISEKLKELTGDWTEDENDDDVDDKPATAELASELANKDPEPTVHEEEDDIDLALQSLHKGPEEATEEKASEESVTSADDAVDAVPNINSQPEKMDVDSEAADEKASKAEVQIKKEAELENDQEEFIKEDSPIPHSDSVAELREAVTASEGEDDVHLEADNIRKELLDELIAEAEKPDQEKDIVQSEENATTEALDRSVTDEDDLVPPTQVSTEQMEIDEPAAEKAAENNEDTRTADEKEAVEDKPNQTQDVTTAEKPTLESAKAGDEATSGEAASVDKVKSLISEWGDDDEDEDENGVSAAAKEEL

[3] = target: Spt5 (Drosophila melanogaster (endogenous in S2 cells and prepupae)) (UniProt Q9V460); test: as above
[4] = target: Mi-2 (Drosophila melanogaster (endogenous in S2 cells and prepupae)) (UniProt O97159); test: as above
[5] = target: T3, Chromator (Drosophila melanogaster (endogenous in S2 cells and prepupae)) (UniProt Q8T9D1); test: as above
T3 sequence: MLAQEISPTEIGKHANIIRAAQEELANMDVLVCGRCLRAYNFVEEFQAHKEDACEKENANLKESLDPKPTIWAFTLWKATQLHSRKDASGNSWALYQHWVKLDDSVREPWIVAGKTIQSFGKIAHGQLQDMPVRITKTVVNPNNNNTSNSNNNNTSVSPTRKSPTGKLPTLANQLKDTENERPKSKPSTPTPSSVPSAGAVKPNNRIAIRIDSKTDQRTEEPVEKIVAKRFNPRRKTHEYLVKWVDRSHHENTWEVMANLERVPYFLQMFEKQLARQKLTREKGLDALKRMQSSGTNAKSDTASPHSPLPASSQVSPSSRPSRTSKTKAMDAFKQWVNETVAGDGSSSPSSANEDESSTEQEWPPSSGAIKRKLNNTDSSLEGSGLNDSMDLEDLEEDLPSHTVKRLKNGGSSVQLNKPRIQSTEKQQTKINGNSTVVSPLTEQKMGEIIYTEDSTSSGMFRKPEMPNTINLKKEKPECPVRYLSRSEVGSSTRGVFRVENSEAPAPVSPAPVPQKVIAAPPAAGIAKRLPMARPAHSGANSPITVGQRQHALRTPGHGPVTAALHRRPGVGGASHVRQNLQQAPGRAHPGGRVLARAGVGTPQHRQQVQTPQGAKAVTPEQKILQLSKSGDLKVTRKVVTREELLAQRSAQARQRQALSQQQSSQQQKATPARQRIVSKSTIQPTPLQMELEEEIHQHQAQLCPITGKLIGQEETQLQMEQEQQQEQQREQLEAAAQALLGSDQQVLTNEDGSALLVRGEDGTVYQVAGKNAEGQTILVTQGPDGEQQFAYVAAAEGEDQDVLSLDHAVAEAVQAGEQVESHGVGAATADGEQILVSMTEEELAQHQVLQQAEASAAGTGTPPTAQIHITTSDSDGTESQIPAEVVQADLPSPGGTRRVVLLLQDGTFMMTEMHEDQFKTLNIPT

[6] = target: Mor (Drosophila melanogaster (endogenous in S2 cells and prepupae)); test: as above
[7] = target: T2, CP190 (Drosophila melanogaster (endogenous in S2 cells and prepupae)); test: co-IP; nuclear protein extracts of Drosophila S2 cells treated with 20E or DMSO for 1 h; IP with anti-CP190 or anti-EcR antibodies; western blot

Molecule: Mor (from UniProt A0A0B4JDA0 1-1145)
- binding [1]: binds

Molecule: Mi-2 (from UniProt O97159 1-1982)
- binding [1]: binds

Molecule: Spt5 (from UniProt Q9V460 1-1078)
- binding [1]: binds

B1: EcR (receptor, UniProt P34021 1-878)
chain: MKRRWSNNGGFMRLPEESSSEVTSSSNGLVLPSGVNMSPSSLDSHDYCDQDLWLCGNESGSFGGSNGHGLSQQQQSVITLAMHGCSSTLPAQTTIIPINGNANGNGGSTNGQYVPGATNLGALANGMLNGGFNGMQQQIQNGHGLINSTTPSTPTTPLHLQQNLGGAGGGGIGGMGILHHANGTPNGLIGVVGGGGGVGLGVGGGGVGGLGMQHTPRSDSVNSISSGRDDLSPSSSLNGYSANESCDAKKSKKGPAPRVQEELCLVCGDRASGYHYNALTCEGCKGFFRRSVTKSAVYCCKFGRACEMDMYMRRKCQECRLKKCLAVGMRPECVVPENQCAMKRREKKAQKEKDKMTTSPSSQHGGNGSLASGGGQDFVKKEILDLMTCEPPQHATIPLLPDEILAKCQARNIPSLTYNQLAVIYKLIWYQDGYEQPSEEDLRRIMSQPDENESQTDVSFRHITEITILTVQLIVEFAKGLPAFTKIPQEDQITLLKACSSEVMMLRMARRYDHSSDSIFFANNRSYTRDSYKMAGMADNIEDLLHFCRQMFSMKVDNVEYALLTAIVIFSDRPGLEKAQLVEAIQSYYIDTLRIYILNRHCGDSMSLVFYAKLLSILTELRTLGNQNAEMCFSLKLKNRKLPKFLEEIWDVHAIPPSVQSHLQITQEENERLERAERMRASVGGAITAGIDCDSASTSAAAAAAQHQPQPQPQPQPSSLTQNDSQHQTQPQLQPQLPPQLQGQLQPQLQPQLQTQLQPQIQPQPQLLPVSAPVPASVTAPGSLSAVSTSSEYMGGSAAIGPITPATTSSITAAVTASSTTSAVPMGNGVGVGVGVGGNVSMYANAQTAMALMGVALHSHQEQLIGGVAVKSEHSTTA
- binding [2]: binds
- binding [3]: binds
- binding [4]: binds
- binding [5]: binds
- binding [6]: binds
- binding [7]: binds

B2: Chromator (protein, UniProt Q8T9D1 1-926)
chain: MLAQEISPTEIGKHANIIRAAQEELANMDVLVCGRCLRAYNFVEEFQAHKEDACEKENANLKESLDPKPTIWAFTLWKATQLHSRKDASGNSWALYQHWVKLDDSVREPWIVAGKTIQSFGKIAHGQLQDMPVRITKTVVNPNNNNTSNSNNNNTSVSPTRKSPTGKLPTLANQLKDTENERPKSKPSTPTPSSVPSAGAVKPNNRIAIRIDSKTDQRTEEPVEKIVAKRFNPRRKTHEYLVKWVDRSHHENTWEVMANLERVPYFLQMFEKQLARQKLTREKGLDALKRMQSSGTNAKSDTASPHSPLPASSQVSPSSRPSRTSKTKAMDAFKQWVNETVAGDGSSSPSSANEDESSTEQEWPPSSGAIKRKLNNTDSSLEGSGLNDSMDLEDLEEDLPSHTVKRLKNGGSSVQLNKPRIQSTEKQQTKINGNSTVVSPLTEQKMGEIIYTEDSTSSGMFRKPEMPNTINLKKEKPECPVRYLSRSEVGSSTRGVFRVENSEAPAPVSPAPVPQKVIAAPPAAGIAKRLPMARPAHSGANSPITVGQRQHALRTPGHGPVTAALHRRPGVGGASHVRQNLQQAPGRAHPGGRVLARAGVGTPQHRQQVQTPQGAKAVTPEQKILQLSKSGDLKVTRKVVTREELLAQRSAQARQRQALSQQQSSQQQKATPARQRIVSKSTIQPTPLQMELEEEIHQHQAQLCPITGKLIGQEETQLQMEQEQQQEQQREQLEAAAQALLGSDQQVLTNEDGSALLVRGEDGTVYQVAGKNAEGQTILVTQGPDGEQQFAYVAAAEGEDQDVLSLDHAVAEAVQAGEQVESHGVGAATADGEQILVSMTEEELAQHQVLQQAEASAAGTGTPPTAQIHITTSDSDGTESQIPAEVVQADLPSPGGTRRVVLLLQDGTFMMTEMHEDQFKTLNIPT
- binding [1]: binds
